Measured values reported in patent publication US6001359A, “Diagnosis of colon carcinoma using monoclonal antibodies to human influx peptide transporter” (Eli Lilly and Company, priority 1997, dated 1999).

Columns and labels:
CHO-K1 cells = test: [14C]cephalexin uptake by control CHO-K1 cells (plasmid pRc/RSV)
[1] = molecular target: T1, influx peptide transporter (Homo sapiens, UniProt Q12864); test: [14C]cephalexin uptake by CHO-K1 transfectant Clone 9 (plasmid pPSJ179)
T1 sequence (Q12864 23-832): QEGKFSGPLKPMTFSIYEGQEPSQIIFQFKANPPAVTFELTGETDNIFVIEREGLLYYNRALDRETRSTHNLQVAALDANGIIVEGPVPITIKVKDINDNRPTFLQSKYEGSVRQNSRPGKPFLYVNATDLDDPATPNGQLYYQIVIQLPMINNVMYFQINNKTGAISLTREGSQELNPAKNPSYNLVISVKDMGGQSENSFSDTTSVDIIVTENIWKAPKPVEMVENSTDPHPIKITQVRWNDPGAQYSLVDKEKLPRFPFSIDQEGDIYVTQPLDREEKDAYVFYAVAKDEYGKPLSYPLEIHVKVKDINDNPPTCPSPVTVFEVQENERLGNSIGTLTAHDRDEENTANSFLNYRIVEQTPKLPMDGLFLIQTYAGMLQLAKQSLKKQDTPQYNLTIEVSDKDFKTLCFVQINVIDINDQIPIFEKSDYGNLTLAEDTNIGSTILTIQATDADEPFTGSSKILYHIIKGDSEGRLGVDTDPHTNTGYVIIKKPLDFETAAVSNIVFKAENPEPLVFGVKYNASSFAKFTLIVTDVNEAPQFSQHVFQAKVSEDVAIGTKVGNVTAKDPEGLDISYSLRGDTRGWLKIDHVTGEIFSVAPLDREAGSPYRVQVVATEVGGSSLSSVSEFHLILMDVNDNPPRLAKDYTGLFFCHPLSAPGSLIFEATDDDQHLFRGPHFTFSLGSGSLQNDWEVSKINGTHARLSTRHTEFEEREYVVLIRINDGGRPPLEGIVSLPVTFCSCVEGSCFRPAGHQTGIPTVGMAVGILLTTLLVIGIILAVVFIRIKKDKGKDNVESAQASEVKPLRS

CC1=C(C(=O)O)N2C(=O)[C@@H](NC(=O)[C@H](N)c3ccccc3)[C@H]2SC1 [cephalexin] was tested. Which “[14C]-Cephalexin Uptake in presence of unlabelled cephalexin” value (CHO-K1 cells; Control cells, 1 mM [14C]cephalexin + 25 mM unlabelled cephalexin) did it give?
Its value is 0.31 ± 0.06 nmol/mg total cell protein.

What about the “[14C]-Cephalexin Uptake” value (CHO-K1 cells; Control cells, 1 mM [14C]cephalexin, 2 hours, 37° C., pH 6.0, no competitor) of the same compound?
Its value is 0.55 ± 0.09 nmol/mg total cell protein.

What about the “effect on transport of 1 mM [14C]cephalexin by the control cells” value (CHO-K1 cells; control cells, bestatin or cephalexin) of the same compound?
Its value is “not inhibited significantly”.

What about the “[14C]-Cephalexin Uptake in presence of unlabelled cephalexin” value ([1]; Clone 9, 1 mM [14C]cephalexin + 25 mM unlabelled cephalexin) of the same compound?
Its value is 0.35 ± 0.09 nmol/mg total cell protein.

And the “effect on uptake of 1 mM cephalexin by the transfectant” value ([1]; Clone 9, 15 mM bestatin or 25 mM unlabelled cephalexin)?
The value was “inhibited”.

And the “drug uptake on coincubation, compared with control cells” value ([1]; Clone 9, coincubation with 1 mM [14C]cephalexin)?
Its value is “decreased drug uptake in the representative transfectant (Clone 9) to the level of the control cells”.

What about the “uptake of [14C]cephalexin by transfectant compared with control” value ([1]; Clone 9 versus control cells, 1 mM [14C]cephalexin) of the same compound?
The value was “significantly higher uptake”.
